Some of these results come from one statement about several compounds together. Some ranges recur; such a range may be that of the whole group of compounds.
Tested on: 191 types of kinases excluding Syk
Test: Selectivity of kinase inhibition (Profiler Pro kits)
Type: biochemical
Settings: test compound 100 nM; 191 kinases excluding Syk
Method: The concentrations of test compounds were adjusted to 100 nM. The test compounds were examined using Profiler Pro kits (Caliper) in terms of activity against each of 191 types of kinases excluding Syk.

Structure (SMILES)	number of kinases other than Syk with kinase inhibitory rate of 75% or more
C[C@H](N)[C@H](Nc1nc(Nc2cnc(N3CCOCC3)c(F)c2)c(C(N)=O)cc1F)C1CCC1 [Example 2-77, 6-(((1R,2S)-2-amino-1-cyclobutylpropyl)amino)-5-fluoro-2-((5-fluoro-6-morpholinopyridin-3-yl)amino)nicotinamide]	0-1 types of kinases
CN(C)c1nn(C)c2ccc(Nc3nc(N[C@@H]4CCCC[C@@H]4N)c(F)cc3C(N)=O)cc12 [Example 2-1, 6-(((1R,2S)-2-aminocyclohexyl)amino)-2-((3-(dimethylamino)-1-methyl-1H-indazol-5-yl)amino)-5-fluoronicotinamide]	0-1 types of kinases
COc1cc(Nc2nc(N[C@H](C3CCC3)[C@H](C)N)c(F)cc2C(N)=O)cc(OC)c1 [Example 2-28]	0-1 types of kinases
